The values that follow come from publication PMC6457538.

For the series, the target named is HoLaMa W866F (UniProt P00582). The experiment in a line: stopped-flow tryptophan fluorescence. Conditions: 3.4 uM enzyme, 3.2 uM DNA, 10 mM MgCl2 in DNA syringe, kobs 141 ± 7 s-1; stopped-flow: 50 mM Tris-HCl pH 8.0, 0.5 mM EDTA, 10 mM MgCl2 (DNA syringe), 20 C; recombinant protein.

For at least one entry, the source does not settle the construct or the ends of the probe.

Take “AAAAAAAAAAAAAAAAAAAAAAAAAAAAAAAAGCGCGCGC / GCGCGCGCTTTTTTT [40mer polyA DNA (40mer template / 15mer primer)]”: the binding result is on record as “binds”.
